No constants are given. Whether binding was seen depends on the method and setting. Binding seen in cells or lysates may run through a third protein. Some results given as binding are weak or reduced against the parent protein; the word gives no strength.
Molecular target: T1, MARCHF5 (human (endogenous in BC-3)) (UniProt Q9NX47)
T1 sequence: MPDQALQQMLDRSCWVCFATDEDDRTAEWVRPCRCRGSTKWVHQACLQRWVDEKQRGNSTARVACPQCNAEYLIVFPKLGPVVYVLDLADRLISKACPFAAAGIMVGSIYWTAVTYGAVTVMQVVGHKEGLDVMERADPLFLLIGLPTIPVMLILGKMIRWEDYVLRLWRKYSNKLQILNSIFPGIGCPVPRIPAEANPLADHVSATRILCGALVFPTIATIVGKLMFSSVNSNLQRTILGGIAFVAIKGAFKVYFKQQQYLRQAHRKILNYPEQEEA
Test: co-IP; reciprocal co-IP of endogenous proteins from BC-3 cell lysate; IP buffer (25 mM HEPES, 100 mM NaCl, 10 mM CaCl2, 5 mM MgCl2) with 1% digitonin; anti-MARCHF5 or anti-NOXA antibody overnight at 4°C, Protein A/G magnetic beads; Western blot for MARCHF5 or NOXA

B1: NOXA (protein, UniProt Q13794 1-54)
chain: MPGKKARKNAQPSPARAPAELEVECATQLRRFGDKLNFRQKLLNLISKLFCSGT
  binding: binds

From paper doi:10.1101/2024.09.23.614413
